{"source": "the supplement of paper PMC6411743", "target": "T1, J3KNF4 (UniProt O14618)", "T1 sequence (whole entry)": "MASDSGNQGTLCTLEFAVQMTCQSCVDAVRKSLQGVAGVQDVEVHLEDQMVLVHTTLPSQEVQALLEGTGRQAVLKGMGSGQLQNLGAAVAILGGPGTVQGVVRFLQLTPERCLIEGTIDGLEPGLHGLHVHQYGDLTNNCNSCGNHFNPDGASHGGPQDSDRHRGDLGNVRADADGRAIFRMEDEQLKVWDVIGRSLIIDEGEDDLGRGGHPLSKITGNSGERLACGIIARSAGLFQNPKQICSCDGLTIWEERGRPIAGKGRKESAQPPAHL", "test": "NP40-soluble protein abundance relative to vehicle (solubility fold change) (ratio); higher = more soluble protein in presence of GTP", "description": "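Solubility proteome profiling in Jurkat crude lysate. Lysate was treated with Mg-GTP (0.1-10 mM) for 10 min at room temperature and 3 min at 37 °C, then solubilised with 0.8% NP40 and benzonase, followed by ultracentrifugation. Proteins were quantified by TMT10 LC-MS/MS; the value is the NP40-soluble abundance relative to the NP40-processed vehicle, from 3 independent experiments.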", "note": "± gives the standard deviation of the averaged measurements. Some of the results follow.", "data": [{"smiles": "Nc1nc2c(ncn2[C@@H]2O[C@H](COP(=O)(O)OP(=O)(O)OP(=O)(O)O)[C@@H](O)[C@H]2O)c(=O)[nH]1", "note": "[guanosine triphosphate]", "values": [{"measurement": "NP40-soluble protein abundance", "setting": "concentration: 0.1mM", "result": "0.98 ± 0.053"}, {"measurement": "NP40-soluble protein abundance", "setting": "concentration: 0.5mM", "result": "0.956 ± 0.042"}, {"measurement": "NP40-soluble protein abundance", "setting": "concentration: 1mM", "result": "0.927 ± 0.045"}, {"measurement": "NP40-soluble protein abundance", "setting": "concentration: 2mM", "result": "0.897 ± 0.087"}, {"measurement": "NP40-soluble protein abundance", "setting": "concentration: 4mM", "result": "0.901 ± 0.084"}, {"measurement": "NP40-soluble protein abundance", "setting": "concentration: 6mM", "result": "0.892 ± 0.074"}, {"measurement": "NP40-soluble protein abundance", "setting": "concentration: 8mM", "result": "0.895 ± 0.1"}, {"measurement": "NP40-soluble protein abundance", "setting": "concentration: 10mM", "result": "0.889 ± 0.086"}]}]}
